Measurements: paper doi:10.1101/388868
Substitutions are numbered along the chain they refer to. These are yes or no findings as the source states them, for the method shown.

B1: C. elegans UNC-10 residues 62-121 WT (domain or fragment, UniProt Q22366 62-121)
chain: KLVGTQDDAICQICQKTKFADGIGHKCFYCQLRSCARCGGRAQSKNKAIWACSLCQKRQQ
B2: C. elegans UNC-10 62-121 K77/79E mutant (domain or fragment, UniProt Q22366 62-121)
chain: B1 chain with K16E, K18E

What was measured:
[1] = target: C. elegans UNC-10 residues 62-121 WT (C. elegans) (UniProt Q22366); experiment: SEC
[2] = target: C. elegans UNC-10 62-121 K77/79E mutant (C. elegans) (UniProt Q22366); experiment: SEC

| Binder | binding [1] | binding [2] |
| --- | --- | --- |
| B1 | no binding |  |
| B2 |  | no binding |
